Counter-ions that a name gives are not always drawn. The list shows a part of the results. Hit calls seldom repeat between salt and free forms of one compound.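 Kinases were expressed as nanoluciferase fusions in K562 cells and luminescence was read every 4 h between 2 and 18 h as percent of control, DMSO set to 100% and a positive control to 0%. A time point counts as decreased when the signal drops significantly (2 sigma). The hit call is the authors' own, does not follow from the count of time points alone, and its rule is not shown.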
Columns and labels:
Assay in all cases: kinase-Nluc reporter destabilization hit call (1 = scored as downregulated) (binary); higher = compound decreases kinase abundance
Conditions in all cases: K562; 2-18 h
EGFR = EGFR (UniProt P00533)
EGFR_G719S = EGFR_G719S (UniProt P00533)
EGFR_G719S_T790M = EGFR_G719S_T790M (UniProt P00533)
EGFR_L718V = EGFR_L718V (UniProt P00533)
EGFR_L858R = EGFR_L858R (UniProt P00533)
EGFR_L861Q = EGFR_L861Q (UniProt P00533)
EGFR_T790M = EGFR_T790M (UniProt P00533)
EPHA2 = EPHA2 (UniProt P29317)
ERBB3 = ERBB3 (UniProt P21860)
[1] = target: ERBB4_R711C (clone: ERBB4_mut) (UniProt Q15303)
ERN1 = ERN1 (UniProt O75460)
FGFR1 = FGFR1 (UniProt P11362)
FGFR2 = FGFR2 (UniProt P21802)
FGFR3 = FGFR3 (UniProt P22607)
FGR = FGR (UniProt P09769)
FLT3 = FLT3 (UniProt P36888)
FYN = FYN (UniProt P06241)
GSK3A = GSK3A (UniProt P49840)
HER2 = HER2 (UniProt P04626)
INSRR = INSRR (UniProt P14616)

The chains behind the UniProt entries cited, without tags or fusion partners. Where a name states a change or a piece, a line headed by the entry shows the natural chain unless it says otherwise.
UniProt P21860, whole entry: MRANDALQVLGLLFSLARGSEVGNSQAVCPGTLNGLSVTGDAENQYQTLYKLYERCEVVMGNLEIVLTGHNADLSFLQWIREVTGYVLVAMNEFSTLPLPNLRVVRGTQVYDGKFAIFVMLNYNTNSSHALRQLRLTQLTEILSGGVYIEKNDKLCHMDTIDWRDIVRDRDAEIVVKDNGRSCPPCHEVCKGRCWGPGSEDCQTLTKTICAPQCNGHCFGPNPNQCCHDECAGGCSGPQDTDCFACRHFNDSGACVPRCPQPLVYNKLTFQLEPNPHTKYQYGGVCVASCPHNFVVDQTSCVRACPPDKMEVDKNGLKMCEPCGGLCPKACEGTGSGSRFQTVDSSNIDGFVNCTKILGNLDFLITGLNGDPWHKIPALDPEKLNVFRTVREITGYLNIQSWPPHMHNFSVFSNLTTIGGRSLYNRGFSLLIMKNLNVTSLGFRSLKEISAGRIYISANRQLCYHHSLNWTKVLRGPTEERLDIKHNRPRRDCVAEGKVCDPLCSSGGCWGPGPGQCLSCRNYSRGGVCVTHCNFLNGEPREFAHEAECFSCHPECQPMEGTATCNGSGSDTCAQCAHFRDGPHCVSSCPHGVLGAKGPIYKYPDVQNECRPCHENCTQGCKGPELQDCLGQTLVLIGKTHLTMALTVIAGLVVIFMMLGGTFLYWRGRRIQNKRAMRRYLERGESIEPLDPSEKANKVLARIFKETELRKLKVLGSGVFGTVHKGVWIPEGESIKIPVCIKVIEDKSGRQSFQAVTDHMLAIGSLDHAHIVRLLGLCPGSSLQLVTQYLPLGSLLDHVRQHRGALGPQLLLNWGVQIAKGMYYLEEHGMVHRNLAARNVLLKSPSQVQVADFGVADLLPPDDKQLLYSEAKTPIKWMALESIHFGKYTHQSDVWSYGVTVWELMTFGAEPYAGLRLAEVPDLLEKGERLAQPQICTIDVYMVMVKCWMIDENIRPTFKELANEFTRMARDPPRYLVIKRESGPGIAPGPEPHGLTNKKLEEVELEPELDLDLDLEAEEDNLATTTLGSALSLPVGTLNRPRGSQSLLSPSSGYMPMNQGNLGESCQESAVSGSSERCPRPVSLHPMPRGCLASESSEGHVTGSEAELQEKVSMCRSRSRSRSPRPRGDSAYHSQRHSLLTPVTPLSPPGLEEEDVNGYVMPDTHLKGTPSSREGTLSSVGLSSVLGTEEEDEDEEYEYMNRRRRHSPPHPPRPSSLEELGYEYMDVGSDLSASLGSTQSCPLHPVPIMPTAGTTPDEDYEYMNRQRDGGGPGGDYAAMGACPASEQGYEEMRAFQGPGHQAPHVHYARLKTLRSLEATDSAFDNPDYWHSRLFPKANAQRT
UniProt O75460: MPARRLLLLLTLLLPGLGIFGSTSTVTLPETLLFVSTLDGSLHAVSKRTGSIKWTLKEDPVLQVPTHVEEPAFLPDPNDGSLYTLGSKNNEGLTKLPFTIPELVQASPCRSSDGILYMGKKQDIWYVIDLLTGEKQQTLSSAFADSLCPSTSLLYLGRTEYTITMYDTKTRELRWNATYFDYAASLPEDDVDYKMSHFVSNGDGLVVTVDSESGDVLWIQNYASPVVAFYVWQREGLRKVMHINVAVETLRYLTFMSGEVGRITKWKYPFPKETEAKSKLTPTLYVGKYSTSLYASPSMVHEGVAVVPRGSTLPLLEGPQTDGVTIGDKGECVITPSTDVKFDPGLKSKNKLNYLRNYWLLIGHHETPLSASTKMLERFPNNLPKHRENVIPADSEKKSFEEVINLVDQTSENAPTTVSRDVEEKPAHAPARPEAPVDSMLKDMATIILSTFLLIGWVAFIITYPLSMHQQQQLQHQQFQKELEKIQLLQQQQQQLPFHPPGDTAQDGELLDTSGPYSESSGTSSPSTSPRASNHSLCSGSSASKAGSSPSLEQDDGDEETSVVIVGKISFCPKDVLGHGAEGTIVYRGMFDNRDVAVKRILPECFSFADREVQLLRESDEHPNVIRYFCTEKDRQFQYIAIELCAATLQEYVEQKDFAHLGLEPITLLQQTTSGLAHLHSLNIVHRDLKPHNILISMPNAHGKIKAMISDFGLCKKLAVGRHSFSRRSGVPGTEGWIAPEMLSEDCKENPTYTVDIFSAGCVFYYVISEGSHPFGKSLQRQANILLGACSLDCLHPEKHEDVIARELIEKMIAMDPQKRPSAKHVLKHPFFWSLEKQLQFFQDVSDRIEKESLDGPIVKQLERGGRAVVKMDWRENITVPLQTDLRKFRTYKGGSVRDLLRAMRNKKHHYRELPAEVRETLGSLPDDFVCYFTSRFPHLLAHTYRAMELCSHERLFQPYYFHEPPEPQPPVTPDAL
UniProt P11362, whole entry, looked up: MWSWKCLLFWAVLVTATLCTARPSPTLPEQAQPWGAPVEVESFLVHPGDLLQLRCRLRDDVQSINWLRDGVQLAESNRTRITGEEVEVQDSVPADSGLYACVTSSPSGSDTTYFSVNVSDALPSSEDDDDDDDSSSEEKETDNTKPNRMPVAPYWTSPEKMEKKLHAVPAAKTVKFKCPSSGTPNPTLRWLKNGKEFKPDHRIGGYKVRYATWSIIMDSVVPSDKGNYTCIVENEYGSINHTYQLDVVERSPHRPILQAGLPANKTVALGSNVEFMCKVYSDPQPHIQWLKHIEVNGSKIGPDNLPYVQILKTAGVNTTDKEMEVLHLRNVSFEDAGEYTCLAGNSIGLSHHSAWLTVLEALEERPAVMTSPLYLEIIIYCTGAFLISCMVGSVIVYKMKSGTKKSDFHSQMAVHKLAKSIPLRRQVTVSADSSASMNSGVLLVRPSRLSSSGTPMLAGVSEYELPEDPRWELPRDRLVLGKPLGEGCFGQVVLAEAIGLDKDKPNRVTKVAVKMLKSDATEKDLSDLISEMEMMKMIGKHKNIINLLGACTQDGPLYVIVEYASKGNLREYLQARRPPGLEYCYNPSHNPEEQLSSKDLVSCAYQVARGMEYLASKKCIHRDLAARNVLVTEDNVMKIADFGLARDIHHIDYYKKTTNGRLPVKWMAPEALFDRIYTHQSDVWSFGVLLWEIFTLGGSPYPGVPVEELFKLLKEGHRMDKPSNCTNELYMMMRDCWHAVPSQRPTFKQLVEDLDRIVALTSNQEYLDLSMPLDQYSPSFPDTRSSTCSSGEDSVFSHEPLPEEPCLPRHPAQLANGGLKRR
UniProt P21802, whole entry, looked up: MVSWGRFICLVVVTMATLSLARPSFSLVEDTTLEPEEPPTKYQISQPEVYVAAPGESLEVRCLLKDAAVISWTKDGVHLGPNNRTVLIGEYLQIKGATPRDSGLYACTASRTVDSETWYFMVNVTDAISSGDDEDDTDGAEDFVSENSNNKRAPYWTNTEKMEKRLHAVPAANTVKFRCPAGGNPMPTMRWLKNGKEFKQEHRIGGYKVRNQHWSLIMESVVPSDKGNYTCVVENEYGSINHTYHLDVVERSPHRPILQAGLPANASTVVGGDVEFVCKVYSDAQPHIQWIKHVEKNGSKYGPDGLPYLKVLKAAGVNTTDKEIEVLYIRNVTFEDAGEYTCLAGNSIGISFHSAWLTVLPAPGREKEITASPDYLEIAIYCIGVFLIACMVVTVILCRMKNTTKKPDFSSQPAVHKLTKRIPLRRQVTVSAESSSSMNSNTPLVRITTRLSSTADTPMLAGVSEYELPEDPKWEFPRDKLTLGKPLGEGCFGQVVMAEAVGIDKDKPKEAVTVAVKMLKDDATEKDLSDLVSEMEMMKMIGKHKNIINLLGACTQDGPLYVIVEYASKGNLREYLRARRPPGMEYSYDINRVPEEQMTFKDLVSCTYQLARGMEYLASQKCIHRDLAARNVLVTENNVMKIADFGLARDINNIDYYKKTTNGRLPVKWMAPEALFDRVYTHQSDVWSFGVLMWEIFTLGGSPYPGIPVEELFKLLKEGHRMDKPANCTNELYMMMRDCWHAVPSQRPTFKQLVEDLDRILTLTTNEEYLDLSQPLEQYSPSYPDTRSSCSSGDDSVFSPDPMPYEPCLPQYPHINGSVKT
UniProt P22607, whole entry, looked up: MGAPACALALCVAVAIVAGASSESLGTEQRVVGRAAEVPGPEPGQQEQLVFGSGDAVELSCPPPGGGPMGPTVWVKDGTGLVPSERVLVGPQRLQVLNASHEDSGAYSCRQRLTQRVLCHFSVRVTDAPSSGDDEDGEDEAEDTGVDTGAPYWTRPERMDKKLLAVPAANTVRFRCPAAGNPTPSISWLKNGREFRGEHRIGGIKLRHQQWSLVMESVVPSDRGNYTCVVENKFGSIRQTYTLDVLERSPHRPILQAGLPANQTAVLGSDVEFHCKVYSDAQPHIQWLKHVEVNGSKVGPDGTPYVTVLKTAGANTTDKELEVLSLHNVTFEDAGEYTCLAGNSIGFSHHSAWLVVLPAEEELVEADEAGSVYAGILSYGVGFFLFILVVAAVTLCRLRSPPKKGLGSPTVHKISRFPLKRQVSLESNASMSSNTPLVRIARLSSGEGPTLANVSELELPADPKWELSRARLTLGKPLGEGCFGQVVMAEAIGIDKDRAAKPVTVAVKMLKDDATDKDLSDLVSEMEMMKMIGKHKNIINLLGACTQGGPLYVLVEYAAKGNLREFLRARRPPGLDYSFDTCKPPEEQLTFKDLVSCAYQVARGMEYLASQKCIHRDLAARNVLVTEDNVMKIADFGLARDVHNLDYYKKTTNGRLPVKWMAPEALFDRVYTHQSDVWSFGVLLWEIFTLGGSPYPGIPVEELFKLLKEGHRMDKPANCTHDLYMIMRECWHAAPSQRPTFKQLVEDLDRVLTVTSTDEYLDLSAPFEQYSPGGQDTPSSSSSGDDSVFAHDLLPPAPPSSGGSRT
UniProt P36888, whole entry: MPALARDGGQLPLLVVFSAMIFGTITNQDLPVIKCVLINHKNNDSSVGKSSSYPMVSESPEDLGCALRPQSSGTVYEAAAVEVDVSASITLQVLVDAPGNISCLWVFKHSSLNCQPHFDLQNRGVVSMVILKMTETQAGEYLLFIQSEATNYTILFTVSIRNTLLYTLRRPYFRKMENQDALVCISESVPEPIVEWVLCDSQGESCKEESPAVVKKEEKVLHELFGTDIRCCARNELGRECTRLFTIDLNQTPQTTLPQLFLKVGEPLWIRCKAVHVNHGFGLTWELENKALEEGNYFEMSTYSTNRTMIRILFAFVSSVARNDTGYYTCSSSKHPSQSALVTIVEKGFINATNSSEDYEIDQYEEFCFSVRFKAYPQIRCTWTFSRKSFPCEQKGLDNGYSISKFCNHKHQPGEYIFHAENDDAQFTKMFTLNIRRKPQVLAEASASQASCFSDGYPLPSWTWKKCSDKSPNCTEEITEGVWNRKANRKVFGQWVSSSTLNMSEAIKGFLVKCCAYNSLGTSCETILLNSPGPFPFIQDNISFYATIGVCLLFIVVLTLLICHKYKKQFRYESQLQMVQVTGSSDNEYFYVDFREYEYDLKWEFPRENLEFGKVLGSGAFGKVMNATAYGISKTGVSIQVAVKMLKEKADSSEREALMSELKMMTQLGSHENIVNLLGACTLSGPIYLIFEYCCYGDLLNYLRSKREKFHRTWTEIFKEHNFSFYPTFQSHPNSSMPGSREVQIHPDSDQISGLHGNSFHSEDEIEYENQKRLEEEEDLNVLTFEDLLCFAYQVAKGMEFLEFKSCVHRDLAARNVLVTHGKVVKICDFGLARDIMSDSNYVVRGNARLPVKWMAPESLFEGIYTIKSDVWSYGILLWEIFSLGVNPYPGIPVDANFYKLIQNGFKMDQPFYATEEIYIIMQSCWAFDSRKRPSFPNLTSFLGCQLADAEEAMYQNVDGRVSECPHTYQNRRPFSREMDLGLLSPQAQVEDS
UniProt P49840: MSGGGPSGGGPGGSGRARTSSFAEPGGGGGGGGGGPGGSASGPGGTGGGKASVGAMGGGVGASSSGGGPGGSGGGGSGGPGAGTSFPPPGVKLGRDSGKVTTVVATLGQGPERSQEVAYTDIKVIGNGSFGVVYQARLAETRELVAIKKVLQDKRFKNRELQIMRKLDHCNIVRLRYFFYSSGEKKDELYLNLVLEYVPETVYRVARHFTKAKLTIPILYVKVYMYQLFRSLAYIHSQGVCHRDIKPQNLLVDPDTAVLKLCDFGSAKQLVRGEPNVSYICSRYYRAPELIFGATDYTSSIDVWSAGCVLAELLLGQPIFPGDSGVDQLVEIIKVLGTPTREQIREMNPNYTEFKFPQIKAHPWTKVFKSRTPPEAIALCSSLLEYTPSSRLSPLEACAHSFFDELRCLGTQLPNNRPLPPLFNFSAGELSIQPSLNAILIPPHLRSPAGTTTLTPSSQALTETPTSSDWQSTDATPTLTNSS

Measured: kinase-Nluc reporter destabilization hit call

COc1cc2ncnc(-n3nc(-c4ccccn4)nc3N)c2cc1OC (10 µM)
inactive: EGFR 0 | EGFR_G719S 0 | EGFR_G719S_T790M 0 | EGFR_L718V 0 | EGFR_L858R 0 | EGFR_L861Q 0 | EGFR_T790M 0 | EPHA2 = 0 | ERBB3 = 0 | [1] 0 | ERN1 = 0 | FGFR1 = 0 | FGFR2 = 0 | FGFR3 = 0 | FGR 0 | FLT3 = 0 | FYN 0 | GSK3A 0 | HER2 = 0 | INSRR 0

O=c1cc(N2CCOCC2)nc2c3ccccc3ccn12 [Compound 401] (10 µM)
inactive: EGFR 0 | EGFR_G719S 0 | EGFR_G719S_T790M 0 | EGFR_L718V 0 | EGFR_L858R 0 | EGFR_L861Q 0 | EGFR_T790M 0 | EPHA2 = 0 | ERBB3 = 0 | [1] 0 | ERN1 = 0 | FGFR1 = 0 | FGFR2 = 0 | FGFR3 = 0 | FGR 0 | FLT3 = 0 | FYN 0 | GSK3A 0 | HER2 = 0 | INSRR 0

O=C(Nc1nc2ccccc2[nH]1)c1cccc([N+](=O)[O-])c1 [IRAK-4 protein kinase inhibitor 2] (10 µM)
inactive: EGFR 0 | EGFR_G719S 0 | EGFR_G719S_T790M 0 | EGFR_L718V 0 | EGFR_L858R 0 | EGFR_L861Q 0 | EGFR_T790M 0 | EPHA2 = 0 | ERBB3 = 0 | [1] 0 | ERN1 = 0 | FGFR1 = 0 | FGFR2 = 0 | FGFR3 = 0 | FGR 0 | FLT3 = 0 | FYN 0 | GSK3A 0 | HER2 = 0 | INSRR 0

Cn1cc(C2=C(c3cn(CCCSC(=N)N)c4ccccc34)C(=O)NC2=O)c2ccccc21 [Ro 31-8220 (mesylate)] (2.5 µM)
inactive: EGFR 0 | EGFR_G719S 0 | EGFR_G719S_T790M 0 | EGFR_L718V 0 | EGFR_L858R 0 | EGFR_L861Q 0 | EGFR_T790M 0 | EPHA2 = 0 | ERBB3 = 0 | [1] 0 | ERN1 = 0 | FGFR1 = 0 | FGFR2 = 0 | FGFR3 = 0 | FGR 0 | FLT3 = 0 | FYN 0 | GSK3A 0 | HER2 = 0 | INSRR 0

CC(=O)c1c(C)c2cnc(Nc3ccc(N4CCN(C(=O)CNc5cccc6c5C(=O)N(C5CCC(=O)NC5=O)C6=O)CC4)cn3)nc2n(C2CCCC2)c1=O (stereo not given) (10 µM)
inactive: EGFR 0 | EGFR_G719S 0 | EGFR_G719S_T790M 0 | EGFR_L718V 0 | EGFR_L858R 0 | EGFR_L861Q 0 | EGFR_T790M 0 | EPHA2 = 0 | ERBB3 = 0 | [1] 0 | ERN1 = 0 | FGFR1 = 0 | FGFR2 = 0 | FGFR3 = 0 | FGR 0 | FLT3 = 0 | FYN 0 | GSK3A 0 | HER2 = 0 | INSRR 0

CC(C)c1cc(/C=C(\C#N)C(=O)NCCCc2ccccc2)cc(C(C)C)c1O (10 µM)
inactive: EGFR 0 | EGFR_G719S 0 | EGFR_G719S_T790M 0 | EGFR_L718V 0 | EGFR_L858R 0 | EGFR_L861Q 0 | EGFR_T790M 0 | EPHA2 = 0 | ERBB3 = 0 | [1] 0 | ERN1 = 0 | FGFR1 = 0 | FGFR2 = 0 | FGFR3 = 0 | FGR 0 | FLT3 = 0 | FYN 0 | GSK3A 0 | HER2 = 0 | INSRR 0

Cn1ncc2cc(-c3cnc(N)c(Cl)c3N3CCC4(CCNC4=O)CC3)ccc21 (10 µM)
inactive: EGFR 0 | EGFR_G719S 0 | EGFR_G719S_T790M 0 | EGFR_L718V 0 | EGFR_L858R 0 | EGFR_L861Q 0 | EGFR_T790M 0 | EPHA2 = 0 | ERBB3 = 0 | [1] 0 | ERN1 = 0 | FGFR1 = 0 | FGFR2 = 0 | FGFR3 = 0 | FGR 0 | FLT3 = 0 | FYN 0 | GSK3A 0 | HER2 = 0 | INSRR 0

CC(C)(C[C@H](N)C(=O)O)C(F)F [NV-5138 (hydrochloride)] (10 µM)
inactive: EGFR 0 | EGFR_G719S 0 | EGFR_G719S_T790M 0 | EGFR_L718V 0 | EGFR_L858R 0 | EGFR_L861Q 0 | EGFR_T790M 0 | EPHA2 = 0 | ERBB3 = 0 | [1] 0 | ERN1 = 0 | FGFR1 = 0 | FGFR2 = 0 | FGFR3 = 0 | FGR 0 | FLT3 = 0 | FYN 0 | GSK3A 0 | HER2 = 0 | INSRR 0

CCN(CC)c1ccc2cc(-c3nc4cc(C)ccc4o3)c(=O)oc2c1 (10 µM)
inactive: EGFR 0 | EGFR_G719S 0 | EGFR_G719S_T790M 0 | EGFR_L718V 0 | EGFR_L858R 0 | EGFR_L861Q 0 | EGFR_T790M 0 | EPHA2 = 0 | ERBB3 = 0 | [1] 0 | ERN1 = 0 | FGFR1 = 0 | FGFR2 = 0 | FGFR3 = 0 | FGR 0 | FLT3 = 0 | FYN 0 | GSK3A 0 | HER2 = 0 | INSRR 0

O=C(NC1CCOCC1)c1ccc(-c2cc(-c3c[nH]nc3-c3ccccn3)ccn2)cc1 (10 µM)
inactive: EGFR 0 | EGFR_G719S 0 | EGFR_G719S_T790M 0 | EGFR_L718V 0 | EGFR_L858R 0 | EGFR_L861Q 0 | EGFR_T790M 0 | EPHA2 = 0 | ERBB3 = 0 | [1] 0 | ERN1 = 0 | FGFR1 = 0 | FGFR2 = 0 | FGFR3 = 0 | FGR 0 | FLT3 = 0 | FYN 0 | GSK3A 0 | HER2 = 0 | INSRR 0

CCCNC(=O)Nc1ccc(Oc2ncnc3cc(OC)c(OC)cc23)cc1Cl (2.5 µM)
inactive: EGFR 0 | EGFR_G719S 0 | EGFR_G719S_T790M 0 | EGFR_L718V 0 | EGFR_L858R 0 | EGFR_L861Q 0 | EGFR_T790M 0 | EPHA2 = 0 | ERBB3 = 0 | [1] 0 | ERN1 = 0 | FGFR1 = 0 | FGFR2 = 0 | FGFR3 = 0 | FGR 0 | FLT3 = 0 | FYN 0 | GSK3A 0 | HER2 = 0 | INSRR 0

Cc1ncc(NC(=O)NC2c3ccccc3-c3ccccc32)c(-c2ccccc2)n1 (10 µM)
inactive: EGFR 0 | EGFR_G719S 0 | EGFR_G719S_T790M 0 | EGFR_L718V 0 | EGFR_L858R 0 | EGFR_L861Q 0 | EGFR_T790M 0 | EPHA2 = 0 | ERBB3 = 0 | [1] 0 | ERN1 = 0 | FGFR1 = 0 | FGFR2 = 0 | FGFR3 = 0 | FGR 0 | FLT3 = 0 | FYN 0 | GSK3A 0 | HER2 = 0 | INSRR 0

C=C[C@@](C)(/C=C/c1ccc(O)cc1)CCC=C(C)C [Bakuchiol] (10 µM)
inactive: EGFR 0 | EGFR_G719S 0 | EGFR_G719S_T790M 0 | EGFR_L718V 0 | EGFR_L858R 0 | EGFR_L861Q 0 | EGFR_T790M 0 | EPHA2 = 0 | ERBB3 = 0 | [1] 0 | ERN1 = 0 | FGFR1 = 0 | FGFR2 = 0 | FGFR3 = 0 | FGR 0 | FLT3 = 0 | FYN 0 | GSK3A 0 | HER2 = 0 | INSRR 0

2 compounds picked at random from the list so far:
C=C[C@@](C)(/C=C/c1ccc(O)cc1)CCC=C(C)C [Bakuchiol] (10 µM)
inactive: EGFR 0 | EGFR_G719S 0 | EGFR_G719S_T790M 0 | EGFR_L718V 0 | EGFR_L858R 0 | EGFR_L861Q 0 | EGFR_T790M 0 | EPHA2 = 0 | ERBB3 = 0 | [1] 0 | ERN1 = 0 | FGFR1 = 0 | FGFR2 = 0 | FGFR3 = 0 | FGR 0 | FLT3 = 0 | FYN 0 | GSK3A 0 | HER2 = 0 | INSRR 0

CC(C)(C[C@H](N)C(=O)O)C(F)F [NV-5138 (hydrochloride)] (10 µM)
inactive: EGFR 0 | EGFR_G719S 0 | EGFR_G719S_T790M 0 | EGFR_L718V 0 | EGFR_L858R 0 | EGFR_L861Q 0 | EGFR_T790M 0 | EPHA2 = 0 | ERBB3 = 0 | [1] 0 | ERN1 = 0 | FGFR1 = 0 | FGFR2 = 0 | FGFR3 = 0 | FGR 0 | FLT3 = 0 | FYN 0 | GSK3A 0 | HER2 = 0 | INSRR 0

The list goes on.

CC(C)c1cccc(C(C)C)c1N1C(=O)c2ccc(N)cc2C1=O (2.5 µM)
inactive: EGFR 0 | EGFR_G719S 0 | EGFR_G719S_T790M 0 | EGFR_L718V 0 | EGFR_L858R 0 | EGFR_L861Q 0 | EGFR_T790M 0 | EPHA2 = 0 | ERBB3 = 0 | [1] 0 | ERN1 = 0 | FGFR1 = 0 | FGFR2 = 0 | FGFR3 = 0 | FGR 0 | FLT3 = 0 | FYN 0 | GSK3A 0 | HER2 = 0 | INSRR 0

COc1cc(N(C)CCN(C)C)c(N)cc1Nc1nccc(-c2cn(C)c3ccccc23)n1 [Mutated EGFR-IN-1] (10 µM)
inactive: EGFR 0 | EGFR_G719S 0 | EGFR_G719S_T790M 0 | EGFR_L718V 0 | EGFR_L858R 0 | EGFR_L861Q 0 | EGFR_T790M 0 | EPHA2 = 0 | ERBB3 = 0 | [1] 0 | ERN1 = 0 | FGFR1 = 0 | FGFR2 = 0 | FGFR3 = 0 | FGR 0 | FLT3 = 0 | FYN 0 | GSK3A 0 | HER2 = 0 | INSRR 0

COc1ccc2cc3[n+](cc2c1OC)CCc1cc(O)c(O)cc1-3 [Demethyleneberberine] (10 µM)
inactive: EGFR 0 | EGFR_G719S 0 | EGFR_G719S_T790M 0 | EGFR_L718V 0 | EGFR_L858R 0 | EGFR_L861Q 0 | EGFR_T790M 0 | EPHA2 = 0 | ERBB3 = 0 | [1] 0 | ERN1 = 0 | FGFR1 = 0 | FGFR2 = 0 | FGFR3 = 0 | FGR 0 | FLT3 = 0 | FYN 0 | GSK3A 0 | HER2 = 0 | INSRR 0

NC(=S)n1[nH]c(-c2ccc([N+](=O)[O-])cc2)c(N=Nc2cccc(Cl)c2)c1=O (2.5 µM)
inactive: EGFR 0 | EGFR_G719S 0 | EGFR_G719S_T790M 0 | EGFR_L718V 0 | EGFR_L858R 0 | EGFR_L861Q 0 | EGFR_T790M 0 | EPHA2 = 0 | ERBB3 = 0 | [1] 0 | ERN1 = 0 | FGFR1 = 0 | FGFR2 = 0 | FGFR3 = 0 | FGR 0 | FLT3 = 0 | FYN 0 | GSK3A 0 | HER2 = 0 | INSRR 0

Cc1cnc(-c2ccc(-c3ccc(NC(=O)Nc4cccc(C(F)(F)F)c4)cc3F)c3c2C(=O)NC3)[nH]1 (10 µM)
inactive: EGFR 0 | EGFR_G719S 0 | EGFR_G719S_T790M 0 | EGFR_L718V 0 | EGFR_L858R 0 | EGFR_L861Q 0 | EGFR_T790M 0 | EPHA2 = 0 | ERBB3 = 0 | [1] 0 | ERN1 = 0 | FGFR1 = 0 | FGFR2 = 0 | FGFR3 = 0 | FGR 0 | FLT3 = 0 | FYN 0 | GSK3A 0 | HER2 = 0 | INSRR 0
